Experimental data reported in PubChem BioAssay AID504467 (National Center for Advancing Translational Sciences (NCATS), 2011).
In all, about 330,000 compounds went through this assay and about 7,700 (2.3%) were called active. The inconclusive results got no clear call from the source; some entries with a clear call stand among them for comparison. Calls come from the whole dose curve; as a rule, active = well fitted inhibition curve with a large enough effect; inconclusive = small, poorly fitted or top-dose-only effect, or effect the other way; inactive = flat fitted curve, though single readings scatter. Where the call is inconclusive, the potency comes from a doubtful curve fit.

Assay: qHTS screen for small molecules that inhibit ELG1-dependent DNA repair in human embryonic kidney (HEK293T) cells expressing luciferase-tagged ELG1; note: nearly all actives have a fitted effect of over 55% in size
Conditions: HEK293T ELG1-luciferase reporter, luminescence, 16 h, DNA damage induced by 5-fluorouridine; activity change, negative = inhibition: at 46.1 µM (top of the series)
How it was run: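 5-Fluorouridine DNA damage + compound/DMSO, 2,000 cells/well, 16 h, 37 °C/5% CO2. ONE-Glo, 30 min RT, luminescence. Readout = decrease in reporter signal.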
% is set by controls: 0 for no effect and ±100 for the full control effect; potency is the fitted concentration of half-maximal effect.

| SMILES | Potency | activity change, negative = inhibition |
| --- | --- | --- |
| COc1ccc(C(=O)NC(=S)Nc2cccc(S(=O)(=O)N3CCOCC3)c2)cc1 | inconclusive: 29.1 µM [inhibitor, single point] |  |
| C=CCNC(=S)Nc1cccc2ccccc12 |  | inactive: -0.057% |
| CCN(C(=S)NCc1ccccc1)c1ccccc1 | inconclusive: 29.1 µM [inhibitor, single point] |  |
| COc1ccccc1NC(=O)CSc1nc2c(oc3ccccc32)c(=O)n1C | inconclusive: 20.6 µM [inhibitor, single point] |  |
| COc1ccc(-c2nc(CN(C)C(C)c3ccon3)c(C)o2)c(C)c1C (stereo not drawn) | inconclusive: 29.1 µM [inhibitor, single point] |  |
| Clc1ccccc1OCCCOc1cccc2cccnc12 | inconclusive: 12.6 µM [activator, single point] |  |
| O=C(O)Cn1nc(-c2ccccc2)c2ccccc2c1=O | inconclusive: 6.51 µM [activator, partial curve, poor fit] |  |
| Nc1nonc1C(=O)NCCNCc1ccccc1OCc1ccccc1F | inconclusive: 29.1 µM [inhibitor, partial curve, poor fit] |  |
| CCn1c2c(c3cc(C(=O)O)ccc31)CCCC2=O |  | inactive: 13% |
| COc1ccc(NC(=O)C(=O)N/N=C\c2ccc(CNC(=O)C(=O)Nc3ccc(C)c(C)c3)o2)c(OC)c1 |  | inactive: -6.89% |
| O=C(CCCOc1ccccc1)NCC1CCCO1 (stereo not drawn) | inconclusive: 29.1 µM [activator, single point] |  |
| COC(=O)c1ccccc1NC(=S)NC(NC(=O)COc1ccccc1)C(Cl)(Cl)Cl (stereo not drawn) |  | inactive: -0.0028% |
| CC[C@]12c3[nH]c4cc(CCC(=O)N(C)C)ccc4c3CCN1C(=O)[C@@H](CC(=O)NCCCn1ccnc1)C[C@@H]2C(=O)N1CCN(C(=O)C2CC2)CC1 |  | inactive: 20.4% |
| O=C(COc1ccc(Br)cc1)N1CCC(c2ccccc2)C1 (stereo not drawn) |  | inactive: 27.1% |
| Cc1cc(Cl)c2oc(C(=O)N(C)C(C)c3ccccn3)c(C)c2c1 (stereo not drawn) | inconclusive: 18.3 µM [activator, single point] |  |
| O=C(O)/C=C/C(=O)NCc1csc2ccccc12 |  | inactive: -10.4% |
| CC(OC(=O)/C=C/c1ccccc1)C(=O)Nc1cccc(C#N)c1 (stereo not drawn) |  | inactive: -1.51% |
| COc1cccc(NC(=O)CSc2nnc3c(n2)[nH]c2ccc(C)cc23)c1 |  | inactive: -2.19% |
| Cc1[nH]c2ccc(-c3nnc(SCC(=O)c4ccc(F)cc4)o3)cc2c1C | inconclusive: 4.11 µM [activator, single point] |  |
| C[C@@H](C(=O)NC1CCN(Cc2ccccc2)CC1)N1C(=O)N2CCc3c([nH]c4ccccc34)[C@@]2(C)C1=O |  | inactive: -21.1% |
| CC(C)(C)NC(=O)c1nc2ccccc2s1 | inconclusive: 16.4 µM [activator, single point] |  |
| Cc1ccc(OCCCCN2CCCCC2)cc1 |  | inactive: -2.69% |
| COc1ccc(C(=O)Nc2ccc3oc(-c4cccnc4)nc3c2)cc1OC | inconclusive: 14.6 µM [inhibitor, partial curve] |  |
| CC1CCN(c2ccc(S(=O)(=O)N3CCC(C)CC3)cc2N)CC1 | inconclusive: 4.61 µM [inhibitor, partial curve, poor fit] |  |

An excerpt of these results, as tab-separated lines.
SMILES	Potency	activity change, negative = inhibition
COc1ccc(C(=O)NC(=S)Nc2cccc(S(=O)(=O)N3CCOCC3)c2)cc1	inconclusive: 29.1 µM [inhibitor, single point]	
CCN(C(=S)NCc1ccccc1)c1ccccc1	inconclusive: 29.1 µM [inhibitor, single point]	
COc1ccccc1NC(=O)CSc1nc2c(oc3ccccc32)c(=O)n1C	inconclusive: 20.6 µM [inhibitor, single point]	
Clc1ccccc1OCCCOc1cccc2cccnc12	inconclusive: 12.6 µM [activator, single point]	
O=C(O)Cn1nc(-c2ccccc2)c2ccccc2c1=O	inconclusive: 6.51 µM [activator, partial curve, poor fit]	
CCn1c2c(c3cc(C(=O)O)ccc31)CCCC2=O		inactive: 13%
COc1ccc(NC(=O)C(=O)N/N=C\c2ccc(CNC(=O)C(=O)Nc3ccc(C)c(C)c3)o2)c(OC)c1		inactive: -6.89%
O=C(CCCOc1ccccc1)NCC1CCCO1 (stereo not drawn)	inconclusive: 29.1 µM [activator, single point]	
O=C(O)/C=C/C(=O)NCc1csc2ccccc12		inactive: -10.4%
CC(OC(=O)/C=C/c1ccccc1)C(=O)Nc1cccc(C#N)c1 (stereo not drawn)		inactive: -1.51%
CC(C)(C)NC(=O)c1nc2ccccc2s1	inconclusive: 16.4 µM [activator, single point]	
Cc1ccc(OCCCCN2CCCCC2)cc1		inactive: -2.69%
CC1CCN(c2ccc(S(=O)(=O)N3CCC(C)CC3)cc2N)CC1	inconclusive: 4.61 µM [inhibitor, partial curve, poor fit]	

The listing continues.

| SMILES | Potency | activity change, negative = inhibition |
| --- | --- | --- |
| O=C(/C=C/c1cccc([N+](=O)[O-])c1)N1CCN(c2ccccn2)CC1 |  | inactive: -21.8% |
| COc1ccc(/C=C/C(=O)Nc2nc(C)c(C(=O)N(C)C)s2)cc1OC |  | inactive: 7% |
| N#C/C(=C\C=C\c1ccccc1[N+](=O)[O-])c1nc(-c2ccc3c(c2)OCO3)cs1 |  | inactive: 12.4% |
| O=c1nc2sc3ccccc3n2c(=O)n1-c1ccc(Cl)cc1 | inconclusive: 9.2 µM [activator, partial curve] |  |
| CCCCC(=O)Nc1ccc(Br)cn1 | inconclusive: 16.4 µM [activator, single point] |  |
| CCOC(=O)C1CCCN(C(=O)c2ccc3nc(-c4ccc(OC)c(OC)c4)c(-c4ccc(OC)c(OC)c4)nc3c2)C1 (stereo not drawn) | active: 1.83 µM |  |
| Cc1ccc(N(C)S(=O)(=O)c2ccc3c(c2)CC(C)N3C(=O)C2CC2)cc1 (stereo not drawn) | inconclusive: 18.3 µM [inhibitor, partial curve, poor fit] |  |
| COc1ccc2nc(SCC(=O)Nc3ccccc3C)[nH]c2c1 |  | inactive: 2.02% |
| Clc1cccc(Cl)c1CSc1nnc2ccccn12 | inconclusive: 16.4 µM [activator, partial curve] |  |
| CCc1c(C)sc2nc(SCC(=O)Nc3cc(C)on3)n(CCOC)c(=O)c12 |  | inactive: -1.78% |
| C[C@H](CO)N1C[C@H](C)[C@@H](CN(C)C(=O)Nc2ccc3c(c2)OCO3)Oc2c(NC(=O)Nc3ccc(C(F)(F)F)cc3)cccc2C1=O | active: 10.3 µM |  |
| COc1ccc(CCNC(=O)c2cc(=O)c3ccc(C)cc3o2)cc1OC | active: 16.4 µM |  |
| Cc1ccc(NC(=O)Cc2ccc3c(c2)OCCO3)cc1S(=O)(=O)N1CCCCC1 | inconclusive: 20.6 µM [inhibitor, partial curve, poor fit] |  |
| C/C(=N\NC(=O)c1c(Br)c(C)nn1C)c1ccc(NC(=O)C(C)Oc2ccc(Cl)cc2C)cc1 (stereo not drawn) | inconclusive: 29.1 µM [inhibitor, single point] |  |
| CCCCN1C(Nc2ccccc2)=NC[C@@H]1C |  | inactive: 6.97% |
| COc1ccc(C(CNC(=O)c2cccc(S(=O)(=O)N3CCOCC3)c2)N2CCCC2)cc1 (stereo not drawn) |  | inactive: 17.7% |
| COc1ccccc1C(=O)Nc1ccc2c(c1)nc(CCNC(=O)c1ccccc1)n2C | inconclusive: 5.17 µM [inhibitor, partial curve] |  |
| COc1ccc(N2CCN(C(=O)CSc3nnc4n3C(C)(C)Cc3ccccc3-4)CC2)cc1 | active: 20.6 µM |  |
| O=C(CSc1nnc(-c2cccs2)n1-c1ccccc1)N1CCCc2ccccc21 | inconclusive: 29.1 µM [inhibitor, single point] |  |
| O=C(Cc1cccs1)Nc1nnc(-c2ccccc2)s1 | inconclusive: 7.3 µM [activator, partial curve] |  |
| Cc1ccccc1NC(=O)c1ccccc1NC(=O)c1cccs1 |  | inactive: -0.65% |
| CC(=O)N1c2ccc(S(=O)(=O)NC(CC(=O)O)c3ccc(Br)cc3)cc2CC1C (stereo not drawn) |  | inactive: -1.72% |
| Cc1nc2ccccc2nc1CSc1nncs1 |  | inactive: -0.15% |
| CN(C)c1nc(N)nc(-c2nc3ccccc3s2)n1 | inconclusive: 4.11 µM [activator, partial curve] |  |
